Experimental data taken from PubChem BioAssay AID286 (DTP/NCI, 2004).
The list shows only some results of the screen, not a fair sample: it gathers tests that were run many times, whatever their T/C, doses with no T/C, and many T/C values between a quarter and a half above the control. Further doses and runs are listed elsewhere. T/C: endpoint of the treated group in % of that of the vehicle group. Some entries give survivors of the animals treated and no T/C: the source holds a T/C of zero for them, seemingly a mark for toxic or unscored doses. Some survivor counts are full or nearly so, which does not show that the dose was tolerated: survival well below the control is almost never listed, so the zero probably covers shortened survival too. Counts of survivors are from the toxicity check (mostly the fifth day) where no day follows; animals may have died later. Schedule codes are those of the source, read here as Q, the interval in days (D) or hours (H), X, the number of doses. Some entries were tested several times; the results are listed from low to high. For survival time, this PubChem deposit counts one and a half times the control or more as active, and values a quarter to a half above the control carry no call in these data; other NCI protocols may use other cut-offs. Signs of the kind (2×) say how often a value occurs here. Some T/C values carry the count of animals alive at the toxicity check (mostly the fifth day); where none is given, no animal had died by that day. Starred links: 1 amine or outer side, 2 acyl side, 3 side chain; linkers in the order of their positions; H or OH if unused. Positions of bridges follow the written chain, without caps; N, C: chain ends. Non-standard residues stand in square brackets, D forms with d. Residues, ends and D or L forms follow the SMILES beside them. Chains are numbered I, II in the order given. ξ: configuration not given here. *: point of attachment. Quinaldoyl(3-OH,6-OMe) = COc1ccc2nc(C(=O)*)c(O)cc2c1; X2 = CC(=O)OC1CC=NN([*:1])C1C(=O)[*:2]; ξNMeVal(3-OH) = CNC(C(=O)O)C(C)(C)O; X3 = O=C(C1CCCNN1[*:1])[*:2]; Sar = CNCC(=O)O

Test system: BDF1 mice, M5076 sarcoma ip, median survival T/C
Assay: NCI In Vivo Anticancer Drug Screen. Data for tumor model Sarcoma M5076 (intraperitoneal) in B6D2F1 (BDF1) mice
Conditions: T/C endpoint: median survival time, higher T/C = longer survival
Method: The antitumor activity of compounds was measured in mice bearing transplantable tumors. Survival or tumor size were measured and the results are expressed as the measurement made in the treated group (T) divided by the measurement made in the vehicle treated control group (C). The tumor model used in this assay is Sarcoma M5076 (intraperitoneal) in B6D2F1 (BDF1) mice

[1] = dose: 160.0 mg/kg/injection, schedule: Q04DX004 (ip), vehicle: saline

For `O=C1c2ccccc2C(=O)c2c(NCCNCCO)ccc(NCCNCCO)c21`, the T/C (dose: 20.0 mg/kg/injection, schedule: Q04DX004 (ip), vehicle: saline) was 146, 161, 164, 174 % of control, the T/C (dose: 20.0 mg/kg/injection, schedule: Q04DX005 (ip), vehicle: saline, evaluated on day 75) was 145, 154, 164, 177 % of control and the T/C (dose: 20.0 mg/kg/injection, schedule: Q04DX005 (ip), vehicle: saline, evaluated on day 100) was 401 % of control. For the same compound, the T/C (dose: 40.0 mg/kg/injection, schedule: Q04DX004 (ip), vehicle: saline) was 153 [9 of 10 alive on day 9], 175, 195, 264 % of control, the T/C (dose: 40.0 mg/kg/injection, schedule: Q04DX005 (ip), vehicle: saline, evaluated on day 75) was 156, 164, 241, 251 % of control and the T/C (dose: 40.0 mg/kg/injection, schedule: Q04DX005 (ip), vehicle: saline, evaluated on day 100) was 401 % of control. For the same compound, the T/C (dose: 80.0 mg/kg/injection, schedule: Q04DX004 (ip), vehicle: saline) was 181, 212, 214, 230 % of control [9 of 10 alive on day 9], the T/C (dose: 80.0 mg/kg/injection, schedule: Q04DX005 (ip), vehicle: saline, evaluated on day 75) was 161, 184, 207, 208 % of control and the T/C (dose: 80.0 mg/kg/injection, schedule: Q04DX005 (ip), vehicle: saline, evaluated on day 100) was 115 % of control. The T/C [1] was 138 % of control, the survivor count [1] was 2 of 10 on day 9 and 9 of 10 on day 9 and the survivor count (dose: 160.0 mg/kg/injection, schedule: Q04DX005 (ip), vehicle: saline) was 0 of 10 on day 9, 3 of 10 on day 9, 8 of 10 on day 9, 9 of 10.
With `COC1=C(C)C(=O)C2=C(C1=O)C(CO)N1C(C#N)C3CC4C(C1C2N1CCOC41)N3C` (stereo not drawn) the survivor count (dose: 1000.0 micrograms/kg/injection, schedule: Q01DX009 (ip), vehicle: acid diluted with saline) was 5 of 10 on day 9.
With `O=C1C2C3C=CC(C2C(=O)N1CO)C1C2C(=O)N(CO)C(=O)C2C31` (stereo not drawn) the survivor count (dose: 100.0 mg/kg/injection, schedule: Q04DX004 (ip), vehicle: water) was 5 of 9 on day 14 and the survivor count (dose: 200.0 mg/kg/injection, schedule: Q04DX004 (ip), vehicle: water) was 0 of 10 on day 14.
With `O=C1N[C@H]2[C@H](O)[C@H](O)[C@@H](O)[C@H](O)[C@@H]2c2cc3c(c(O)c21)OCO3` the T/C (dose: 0.75 mg/kg/injection, schedule: Q01DX009 (ip), vehicle: saline + alcohol) was 143 % of control, the survivor count (dose: 6.0 mg/kg/injection, schedule: Q01DX009 (ip), vehicle: saline + alcohol) was 0 of 10 on day 9 and 6 of 10 on day 9 and the survivor count (dose: 12.0 mg/kg/injection, schedule: Q01DX009 (ip), vehicle: saline + alcohol) was 0 of 10 on day 9.
`CC(=O)/C(=C\c1ccc(Cl)c(Cl)c1)C(=O)CCN(C)C` was tested, and the survivor count (dose: 200.0 mg/kg/injection, schedule: Q04DX004 (ip), vehicle: saline) was 0 of 10 on day 14.
For `C[C@@](O)(/C=C/[C@H]1CC=CC(=O)O1)[C@@H](C[C@@H](O)\C=C/C=C\C=C\CO)OP(=O)(O)O`, the T/C (dose: 16.0 mg/kg/injection, schedule: Q01DX009 (ip), vehicle: water) was 127 % of control.
In the case of `O=Cc1c(O)c2ccccc2[nH]c1=O`, the survivor count (dose: 200.0 mg/kg/injection, schedule: Q04DX004 (ip), vehicle: saline with Tween-80) is reported as 7 of 10 on day 14 and the survivor count (dose: 400.0 mg/kg/injection, schedule: Q04DX004 (ip), vehicle: saline with Tween-80) is reported as 0 of 10 on day 14.
With `CN(C)CCN1C(=O)c2cccc3cc(N)cc(c23)C1=O` the T/C (dose: 36.0 mg/kg/injection, schedule: Q04DX004 (ip), vehicle: acid diluted with saline) was 139 % of control and the survivor count (dose: 72.0 mg/kg/injection, schedule: Q04DX004 (ip), vehicle: acid diluted with saline) was 5 of 10 on day 14.
`COc1cc(NCc2ccc3nc(N)nc(N)c3c2C)cc(OC)c1OC` (tested in a mixture with another compound) was tested, and the T/C (dose: 20.0 mg/kg/injection, schedule: Q04DX005 (ip), vehicle: water) was 127 % of control, the T/C (dose: 80.0 mg/kg/injection, schedule: Q04DX005 (ip), vehicle: water) was 145 % of control [9 of 10 alive on day 9] and the T/C (dose: 160.0 mg/kg/injection, schedule: Q04DX005 (ip), vehicle: water) was 142 % of control.
In the case of `C[C@@]12C(=O)OC(=O)[C@]1(C)[C@H]1CC[C@@H]2O1`, the survivor count (dose: 1.0 mg/kg/injection, schedule: Q01DX009 (ip), vehicle: acetone) is reported as 0 of 10 on day 9, the survivor count (dose: 2.0 mg/kg/injection, schedule: Q01DX009 (ip), vehicle: acetone) is reported as 1 of 10 on day 9 and the survivor count (dose: 4.0 mg/kg/injection, schedule: Q01DX009 (ip), vehicle: acetone) is reported as 0 of 10 on day 9. For the same compound, the T/C (dose: 125.0 micrograms/kg/injection, schedule: Q01DX009 (ip), vehicle: acetone) was 126 % of control and the T/C (dose: 500.0 micrograms/kg/injection, schedule: Q01DX009 (ip), vehicle: acetone) was 125 % of control.
`CCN(CC)CCCNc1nccc2c(C)c3[nH]c4ccncc4c3cc12` was tested, and the survivor count (dose: 20.0 mg/kg/injection, schedule: Q04DX004 (ip), vehicle: other) was 4 of 8 on day 9.
With `COc1ccc2nc(C(=O)NC3COC(=O)C(C(C)(C)O)N(C)C(=O)CN(C)C(=O)CNC(=O)C4CCCNN4C(=O)C(NC(=O)c4nc5ccc(OC)cc5cc4O)COC(=O)C(C(C)(C)O)N(C)C(=O)CN(C)C(=O)CNC(=O)C4C(OC(C)=O)CC=NN4C3=O)c(O)cc2c1` (stereo not drawn) (I: {Quinaldoyl(3-OH,6-OMe)}-S[X2]G[Sar][ξNMeVal(3-OH)] / II: {Quinaldoyl(3-OH,6-OMe)}-S[X3]G[Sar][ξNMeVal(3-OH)]; ester I:1-II:C, I:C-II:1; configuration not given here) the T/C (dose: 1.25 micrograms/kg/injection, schedule: Q01DX009 (ip), vehicle: DMSO) was 128 % of control, the T/C (dose: 2.5 micrograms/kg/injection, schedule: Q01DX009 (ip), vehicle: DMSO) was 126 % of control and the T/C (dose: 5.0 micrograms/kg/injection, schedule: Q01DX009 (ip), vehicle: DMSO) was 129 % of control. The survivor count (dose: 100.0 micrograms/kg/injection, schedule: Q01DX009 (ip), vehicle: DMSO) was 2 of 10 on day 9 and the survivor count (dose: 200.0 micrograms/kg/injection, schedule: Q01DX009 (ip), vehicle: DMSO) was 0 of 10 on day 9.
With `COc1cc2c(cc1OC)C1C(=O)c3ccc4c(c3OC1CO2)CC(C(C)(O)CO)O4` (stereo not drawn) the survivor count (dose: 16.0 mg/kg/injection, schedule: Q01DX009 (ip), vehicle: DMSO) was 0 of 10 on day 9 and the survivor count (dose: 32.0 mg/kg/injection, schedule: Q01DX009 (ip), vehicle: DMSO) was 0 of 10 on day 9.
For `COC(=O)[C@@]12OC[C@]34[C@H]([C@@H](O)[C@@H]1O)[C@@]1(C)CC(=O)C(O)=C(C)[C@@H]1C[C@H]3OC(=O)[C@H](OC(=O)/C=C(\C)C(C)C)[C@@H]24`, the T/C (dose: 0.25 mg/kg/injection, schedule: Q04DX004 (ip), vehicle: saline) was 95, 103, 113, 119, 120 % of control, the T/C (dose: 0.25 mg/kg/injection, schedule: Q04DX005 (ip), vehicle: saline) was 98, 105, 110, 121, 124 % of control and the T/C (dose: 0.5 mg/kg/injection, schedule: Q04DX004 (ip), vehicle: saline) was 105, 114, 122, 124, 162 % of control. For the same compound, the T/C (dose: 0.5 mg/kg/injection, schedule: Q04DX005 (ip), vehicle: saline) was 103, 108, 118, 124 [9 of 10 alive on day 9], 129 % of control, the T/C (dose: 1.0 mg/kg/injection, schedule: Q04DX004 (ip), vehicle: saline) was 99, 103, 112, 125, 134 % of control and the T/C (dose: 1.0 mg/kg/injection, schedule: Q04DX005 (ip), vehicle: saline) was 96, 97 [9 of 10 alive on day 9], 131, 139, 140 % of control. For the same compound, the T/C (dose: 2.0 mg/kg/injection, schedule: Q04DX004 (ip), vehicle: saline) was 99 [8 of 10 alive on day 9], 118, 145, 147, 156 % of control and the T/C (dose: 2.0 mg/kg/injection, schedule: Q04DX005 (ip), vehicle: saline) was 113, 117, 131, 144, 156 % of control.
For `COc1cc2cc3c(c(O)c2c(O)c1/C=C/C(C)C)C(=O)CC(C)(OC(C)=O)C3` (stereo not drawn), the T/C (dose: 2.5 mg/kg/injection, schedule: Q01DX009 (ip), vehicle: Klucel (hydroxypropylcellulose) (HPC)) was 135 [9 of 10 alive on day 9] and 140 % of control, the T/C (dose: 5.0 mg/kg/injection, schedule: Q01DX009 (ip), vehicle: Klucel (hydroxypropylcellulose) (HPC)) was 145 % of control (2×) and the survivor count (dose: 10.0 mg/kg/injection, schedule: Q01DX009 (ip), vehicle: Klucel (hydroxypropylcellulose) (HPC)) was 10 of 10 on day 9.
`OC(CBr)C(O)C(O)C(O)CBr` (stereo not drawn) was tested, and the T/C (dose: 180.0 mg/kg/injection, schedule: Q04DX005 (ip), vehicle: saline with Tween-80) was 133 % of control and the T/C (dose: 300.0 mg/kg/injection, schedule: Q04DX005 (ip), vehicle: saline with Tween-80) was 143 % of control [9 of 10 alive on day 17].
